Results on 3 molecules are retold here after publication PMC8264791.

Sequences and labels used below:
B1: CALMODULIN-LIKE PROTEIN 10 (protein, UniProt P30187 1-191)
chain: MANKFTRQQISEFREQFSVYDKNGDGHITTEEFGAVMRSLGLNLTQAELQEEINDSDLDGDGTINFTEFLCAMAKDTYSEKDLKKDFRLFDIDKNGFISAAEMRYVRTILRWKQTDEEIDEIIKAADVDGDGQINYREFARLMMAKNQGHDTKYDTTGGTLERDLAAGVAKNIIAAPMTDFIKNLFEALFS
B2: VARICOSE (protein, UniProt Q9LTT8 1-1344)
chain: MASSPGNTNPHNTPPFDLGILFKPSSNPYPPPAASYPPPTGPFLHNQYDQQHYAPPGISAQPSPVTQQQQDVSSSSAATNLHPQRTLSYPTPPLNLQSPRSNHNPGTHILALLNNTNNGAPVANQEPSHQLPVVNHNEIARSFPGGSGPIRVPSCKLPKGRRLIGEHAVYDVDVRLQGEIQPQLEVTPITKYGSDPQLVVGRQIAVNKVYICYGLKGGNIRVLNINTALRSLFRGHSQRVTDMAFFAEDVDMLASVSLDGKVFVWKISEGSEGEDQPQITGKIVLALQILGEEDTKHPRVCWHCHKQEILVVSIGKHVLRIDTTKVGRGEVFSAEAPLQCPLDKLIDGVQIVGKHDGEVTDLSMCQWMTTRLVSSSVDGTIKIWQDRKAQPLVVLRPHDGHPVSSATFVTSPERPDHIILITGGPLNREMKIWVSAGEEGWLLPADAESWRCTQTLDLKSSTEPRAEEAFFNQVIALSEAGLLLLANAKRNALYAVHLDYGSSPVGTRMDYLSEFTVTMPILSFIGTNDPPEEPIVKVYCVQTLAIQQYTLDLCLCLPPPIENMGLEKSDSSVSREANLVEGMSEPSGLKPTDLPSVDSVPKPSIIVNRSESANKLSFPSAEATSQAIVPPNGEPKTSGLPSQTSGAGSAYATLPQLPLSPRLSSKLSGYHTPVEAIEPVIPHHELGGKTPSADYSVDRQMDAVGERNLDVSSVEEISRSKDSNVTPDDDVSGMRSPSAFFKHPTHLVTPSEILMGVSSAEASITTEDRRDRDANIQDVNNDPRDTEVEVKEISEARSTQNGEINDHDETENCTSENREKVFCSQVSNLSTEMARDCYPSTEGTFIPGESKAYGQPIKAGDESGVDSRGGPAKLLKGKKQKAKNSQGPGLSSTSSNVANLADSFNEQSQSLSHPMTDLLPQLLAMQETMNQVMASQKEMQRQLSNAATGPIGKESKRLEVALGRMIEKSSKSNADALWARIQEETVKNEKALRDHAQQIVNATTNFMSKELNAMFEKTIKKELAAIGPALARSVVPVIEKTVSSAITESFQRGIGDKAVNQLDKSVNIKLEATVARQIQAQFQTSGKQALQEGLRSSVESSVIPSFEKACKAMFDQIDSAFQKGIAEHTNAAQQRFDSGHSQLAHTLKESITSASSVAQALSRELAETQRNLLALAAAGANSGGSNSLVTQLSGGPLGALLEKVEAPMDPTTELSRLISERKYEESFTSALQRSDVSIVSWLCSQVDLRGLLAMNPLPLSQGVLLSLLQQLACDISKDTSRKLAWMTDVVAAINPSDQMIAVHARPIFEQVYQILHHHRNAPGSDVSAIRLIMHVINSMLMGCK
B3: RAN GTPASE-… PROTEIN 1 (protein, UniProt Q9LE82 1-535)
chain: MDHSAKTTQNRVLSVKMWPPSKSTRLMLVERMTKNITTPSIFSRKYGLLSVEEAEQDAKRIEDLAFATANKHFQNEPDGDGTSAVHVYAKESSKLMLDVIKRGPQEESEVEVSKDGDVFFDISGGSRAFIEEEEARDLLRPLADPRNSYTKIRFSNRSFGSEAAKFAASVLSSIKDQLTEVDLSDFVAGRPEAEALEVMNMFSSALEGSKLRYLNLSDNALGEKGIRAFASLINSQHDLEELYLMNDGISEDAARAVRELLPSTDKIRVLQFHNNMTGDEGATAIAEIVRECPSLEDFRCSSTRIGSEGGVALAEALEHCSHLKKLDLRDNMFGVEGGIALAKTLSVLTHLTEIYMSYLNLEDEGTEALSEALLKSAPSLEVLELAGNDITVKSTGNLAACIASKQSLAKLNLSENELKDEGTILIAKAVEGHDQLVEVDLSTNMIRRAGARALAQTVVKKNTFKLLNINGNFISEEGIDEVNDMFKDCLDKLVPLDDNDPEGEDFEDEDEEEEGEDGNELESKLGSLKIKQGEE

These are yes or no findings as the source states them, for the method shown. In cells and extracts the contact can be indirect. These calls come from enrichment with a bait or labelling near it, and not all partners need be listed. Where a sequence is shown, tags or fusion partners need not be part of it.

This test concerns the target T1, GFP-SKD1 (SUPPRESSOR OF K(+) TRANSPORT GROWTH DEFECT 1) (A. thaliana) (UniProt Q9ZNT0).
T1 sequence: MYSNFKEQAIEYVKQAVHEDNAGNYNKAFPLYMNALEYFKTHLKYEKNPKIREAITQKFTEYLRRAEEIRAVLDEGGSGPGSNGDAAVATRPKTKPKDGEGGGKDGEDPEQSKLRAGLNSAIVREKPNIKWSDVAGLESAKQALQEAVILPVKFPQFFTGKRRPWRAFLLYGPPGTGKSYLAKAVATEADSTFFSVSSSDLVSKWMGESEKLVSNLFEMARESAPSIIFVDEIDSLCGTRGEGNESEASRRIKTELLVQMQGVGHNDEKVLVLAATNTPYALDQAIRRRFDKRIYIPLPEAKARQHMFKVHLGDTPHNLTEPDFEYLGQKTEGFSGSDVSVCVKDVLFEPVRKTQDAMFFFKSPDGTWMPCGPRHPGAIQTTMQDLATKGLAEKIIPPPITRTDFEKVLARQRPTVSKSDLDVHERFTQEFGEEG
The test is described as follows: affinity purification with mass spectrometry; GFP-SKD1 immunoprecipitated with the GFP Isolation kit (Miltenyi Biotec; anti-GFP magnetic beads) from extracts of rosette leaves of 35S::GFP-SKD1 plants, heat-treated or kept at RT; on-bead digest, LC-MS/MS; 35S::YFP line as negative control; 3 replicates each.
Turning to B1, the binding result is recorded as “binds”.
The same measure for B2: “binds”.
In the case of B3, the binding result was “binds”.
